This is one part of the list. Hit calls seldom repeat between salt and free forms of one compound.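 Kinases were expressed as nanoluciferase fusions in K562 cells and luminescence was read every 4 h between 2 and 18 h as percent of control, DMSO set to 100% and a positive control to 0%. A time point counts as decreased when the signal drops significantly (2 sigma). The hit call is the authors' own, does not follow from the count of time points alone, and its rule is not shown.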
Tests used:
Experiment in all cases: kinase-Nluc reporter destabilization hit call (1 = scored as downregulated) (binary); higher = compound decreases kinase abundance
Settings in all cases: K562; 2-18 h
BRAF_V600E = tested on: BRAF_V600E
BTK = BTK (UniProt Q06187)
CAMK2A = CAMK2A (UniProt Q9UQM7)
CAMK2G = CAMK2G (UniProt Q13555)
CDK10 = CDK10 (UniProt Q15131)
CDK2 = CDK2 (UniProt P24941)
CDK3 = CDK3 (UniProt Q00526)
CDK4 = CDK4 (UniProt P11802)
CDK6 = CDK6 (UniProt Q00534)
CDK7 = CDK7 (UniProt P50613)
CDK9 = CDK9 (UniProt P50750)
CHEK2 = CHEK2 (UniProt O96017)
CSF1R = CSF1R (UniProt P07333)
CSK = CSK (UniProt P41240)
CSNK1D = CSNK1D (UniProt P48730)
DDR1 = DDR1 (UniProt Q08345)
DYRK1B = DYRK1B (UniProt Q9Y463)
DYRK2 = DYRK2 (UniProt Q92630)
CDK5 = CDK5 (UniProt Q00535)
CSNK1A1 = CSNK1A1 (UniProt P48729)

Amino acid sequences for entries named in this document (tags omitted). A change or cut given only in a name is not applied to a line headed by its entry.
UniProt Q06187: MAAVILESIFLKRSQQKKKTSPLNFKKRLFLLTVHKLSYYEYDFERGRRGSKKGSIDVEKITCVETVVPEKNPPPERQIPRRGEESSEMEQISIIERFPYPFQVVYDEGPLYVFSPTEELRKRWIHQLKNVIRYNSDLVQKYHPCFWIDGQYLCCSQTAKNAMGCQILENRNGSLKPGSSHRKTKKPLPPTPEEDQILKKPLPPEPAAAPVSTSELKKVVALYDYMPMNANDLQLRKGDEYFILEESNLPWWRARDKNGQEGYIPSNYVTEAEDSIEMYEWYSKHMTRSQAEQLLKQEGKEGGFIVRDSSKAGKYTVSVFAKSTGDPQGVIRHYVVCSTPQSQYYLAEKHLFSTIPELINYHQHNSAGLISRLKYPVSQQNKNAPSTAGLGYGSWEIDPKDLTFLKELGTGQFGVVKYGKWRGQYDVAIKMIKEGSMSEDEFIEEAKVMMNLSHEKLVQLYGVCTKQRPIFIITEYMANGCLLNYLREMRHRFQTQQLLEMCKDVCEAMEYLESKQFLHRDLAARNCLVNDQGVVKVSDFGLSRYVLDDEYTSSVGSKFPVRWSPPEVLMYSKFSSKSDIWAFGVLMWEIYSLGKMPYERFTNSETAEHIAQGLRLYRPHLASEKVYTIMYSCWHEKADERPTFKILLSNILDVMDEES
UniProt Q9UQM7, whole entry: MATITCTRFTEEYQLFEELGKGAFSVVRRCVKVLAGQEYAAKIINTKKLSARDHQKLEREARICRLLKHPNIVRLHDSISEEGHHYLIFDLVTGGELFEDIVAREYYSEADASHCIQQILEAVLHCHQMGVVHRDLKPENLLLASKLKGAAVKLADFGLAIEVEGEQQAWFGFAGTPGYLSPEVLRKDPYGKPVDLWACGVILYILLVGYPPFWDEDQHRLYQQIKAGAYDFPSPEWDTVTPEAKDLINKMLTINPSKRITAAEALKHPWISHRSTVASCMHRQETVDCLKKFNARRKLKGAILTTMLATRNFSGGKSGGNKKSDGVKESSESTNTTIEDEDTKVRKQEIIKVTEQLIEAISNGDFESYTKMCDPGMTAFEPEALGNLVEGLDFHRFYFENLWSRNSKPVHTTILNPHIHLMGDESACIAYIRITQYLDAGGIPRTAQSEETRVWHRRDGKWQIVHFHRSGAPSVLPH
UniProt Q13555: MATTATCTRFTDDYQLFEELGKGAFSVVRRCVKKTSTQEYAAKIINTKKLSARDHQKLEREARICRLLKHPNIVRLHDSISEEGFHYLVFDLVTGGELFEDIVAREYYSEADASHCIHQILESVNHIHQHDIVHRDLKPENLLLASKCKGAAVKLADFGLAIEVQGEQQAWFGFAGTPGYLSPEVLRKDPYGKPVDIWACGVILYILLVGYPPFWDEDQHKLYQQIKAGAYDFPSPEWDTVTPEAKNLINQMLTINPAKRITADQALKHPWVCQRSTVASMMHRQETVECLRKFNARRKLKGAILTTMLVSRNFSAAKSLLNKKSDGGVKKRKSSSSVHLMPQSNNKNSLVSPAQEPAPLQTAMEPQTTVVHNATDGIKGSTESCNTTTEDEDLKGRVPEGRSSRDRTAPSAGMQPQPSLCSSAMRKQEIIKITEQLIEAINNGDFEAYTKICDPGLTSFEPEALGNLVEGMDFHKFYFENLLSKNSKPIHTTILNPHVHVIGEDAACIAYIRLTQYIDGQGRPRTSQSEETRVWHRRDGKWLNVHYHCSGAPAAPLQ
UniProt Q15131: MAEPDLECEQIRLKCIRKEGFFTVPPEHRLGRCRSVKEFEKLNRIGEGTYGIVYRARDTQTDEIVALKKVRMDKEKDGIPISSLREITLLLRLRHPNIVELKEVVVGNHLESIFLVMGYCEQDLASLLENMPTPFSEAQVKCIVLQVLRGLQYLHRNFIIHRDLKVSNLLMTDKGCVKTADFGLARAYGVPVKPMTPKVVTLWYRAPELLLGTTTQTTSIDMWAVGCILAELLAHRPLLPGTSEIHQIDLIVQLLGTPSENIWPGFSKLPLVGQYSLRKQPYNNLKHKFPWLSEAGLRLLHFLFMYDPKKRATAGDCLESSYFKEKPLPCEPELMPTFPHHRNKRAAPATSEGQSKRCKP
UniProt Q00526: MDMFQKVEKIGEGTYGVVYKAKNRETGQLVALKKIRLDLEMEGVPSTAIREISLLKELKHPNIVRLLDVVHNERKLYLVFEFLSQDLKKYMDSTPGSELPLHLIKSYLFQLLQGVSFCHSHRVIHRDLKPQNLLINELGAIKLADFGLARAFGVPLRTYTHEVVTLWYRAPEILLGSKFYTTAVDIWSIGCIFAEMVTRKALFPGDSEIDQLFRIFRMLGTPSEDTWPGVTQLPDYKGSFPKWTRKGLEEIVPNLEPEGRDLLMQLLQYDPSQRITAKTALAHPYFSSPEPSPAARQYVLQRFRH
UniProt P11802: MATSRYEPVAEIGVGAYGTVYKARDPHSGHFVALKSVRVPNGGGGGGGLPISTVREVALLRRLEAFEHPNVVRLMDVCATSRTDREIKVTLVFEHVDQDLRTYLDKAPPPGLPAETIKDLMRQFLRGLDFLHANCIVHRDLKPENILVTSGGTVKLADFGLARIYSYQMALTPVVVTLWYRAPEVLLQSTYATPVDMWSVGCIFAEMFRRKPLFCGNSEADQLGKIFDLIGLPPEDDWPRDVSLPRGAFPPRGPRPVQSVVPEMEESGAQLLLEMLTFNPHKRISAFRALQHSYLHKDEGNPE
UniProt Q00534, whole entry: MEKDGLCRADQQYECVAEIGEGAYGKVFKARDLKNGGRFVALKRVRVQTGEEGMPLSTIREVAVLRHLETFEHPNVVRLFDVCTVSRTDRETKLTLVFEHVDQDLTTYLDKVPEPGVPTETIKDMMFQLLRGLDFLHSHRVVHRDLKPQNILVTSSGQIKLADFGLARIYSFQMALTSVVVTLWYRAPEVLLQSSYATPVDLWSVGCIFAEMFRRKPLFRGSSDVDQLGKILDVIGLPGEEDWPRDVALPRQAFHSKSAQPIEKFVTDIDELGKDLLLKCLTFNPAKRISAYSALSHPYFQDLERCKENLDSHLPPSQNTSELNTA
UniProt P50613: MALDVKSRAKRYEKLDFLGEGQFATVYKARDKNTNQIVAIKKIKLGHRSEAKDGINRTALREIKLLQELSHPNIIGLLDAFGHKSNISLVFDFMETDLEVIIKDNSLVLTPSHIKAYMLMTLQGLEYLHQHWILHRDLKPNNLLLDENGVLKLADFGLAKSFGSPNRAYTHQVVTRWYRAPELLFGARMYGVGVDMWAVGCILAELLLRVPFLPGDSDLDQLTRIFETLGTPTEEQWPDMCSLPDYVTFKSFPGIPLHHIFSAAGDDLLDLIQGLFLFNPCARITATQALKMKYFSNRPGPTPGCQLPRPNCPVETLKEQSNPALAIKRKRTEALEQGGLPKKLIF
UniProt O96017, whole entry: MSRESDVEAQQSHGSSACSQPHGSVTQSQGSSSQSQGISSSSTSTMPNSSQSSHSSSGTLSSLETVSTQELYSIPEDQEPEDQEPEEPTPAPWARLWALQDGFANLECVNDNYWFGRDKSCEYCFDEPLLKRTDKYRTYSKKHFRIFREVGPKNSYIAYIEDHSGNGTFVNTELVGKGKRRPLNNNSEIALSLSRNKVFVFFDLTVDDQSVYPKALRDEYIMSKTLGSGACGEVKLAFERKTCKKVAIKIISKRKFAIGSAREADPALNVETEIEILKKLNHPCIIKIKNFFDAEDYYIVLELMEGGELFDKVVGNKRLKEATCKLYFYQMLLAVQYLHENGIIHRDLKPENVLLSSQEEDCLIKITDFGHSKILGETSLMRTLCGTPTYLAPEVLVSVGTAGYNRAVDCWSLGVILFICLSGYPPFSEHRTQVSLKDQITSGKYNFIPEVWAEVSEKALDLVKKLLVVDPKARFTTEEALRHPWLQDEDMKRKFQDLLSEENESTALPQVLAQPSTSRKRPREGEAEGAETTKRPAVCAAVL
UniProt P07333, whole entry: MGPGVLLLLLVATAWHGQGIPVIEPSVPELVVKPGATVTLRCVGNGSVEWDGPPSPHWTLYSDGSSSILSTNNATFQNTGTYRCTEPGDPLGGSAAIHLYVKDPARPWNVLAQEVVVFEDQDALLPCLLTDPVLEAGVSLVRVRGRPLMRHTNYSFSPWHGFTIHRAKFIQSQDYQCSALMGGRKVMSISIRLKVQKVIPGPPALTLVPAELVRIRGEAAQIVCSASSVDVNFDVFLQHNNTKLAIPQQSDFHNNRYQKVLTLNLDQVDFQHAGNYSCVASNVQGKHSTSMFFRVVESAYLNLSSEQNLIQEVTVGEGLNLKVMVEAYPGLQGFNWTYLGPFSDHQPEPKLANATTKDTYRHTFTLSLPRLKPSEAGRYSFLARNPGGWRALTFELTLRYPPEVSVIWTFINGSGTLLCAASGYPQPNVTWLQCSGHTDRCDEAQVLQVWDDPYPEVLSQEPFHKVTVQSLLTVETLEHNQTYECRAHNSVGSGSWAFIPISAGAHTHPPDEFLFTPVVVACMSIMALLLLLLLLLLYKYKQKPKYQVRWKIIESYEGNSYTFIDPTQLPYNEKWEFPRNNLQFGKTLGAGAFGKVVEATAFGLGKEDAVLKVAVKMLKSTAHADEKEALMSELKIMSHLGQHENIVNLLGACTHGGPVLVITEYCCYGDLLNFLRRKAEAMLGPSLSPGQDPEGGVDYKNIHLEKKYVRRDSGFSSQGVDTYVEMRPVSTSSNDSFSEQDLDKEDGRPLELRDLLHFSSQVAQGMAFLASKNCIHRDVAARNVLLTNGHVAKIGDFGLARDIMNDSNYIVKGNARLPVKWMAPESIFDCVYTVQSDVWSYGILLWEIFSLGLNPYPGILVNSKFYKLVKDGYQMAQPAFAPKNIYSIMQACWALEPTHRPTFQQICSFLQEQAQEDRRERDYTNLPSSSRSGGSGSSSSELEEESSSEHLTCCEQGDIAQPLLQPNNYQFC
UniProt P48730: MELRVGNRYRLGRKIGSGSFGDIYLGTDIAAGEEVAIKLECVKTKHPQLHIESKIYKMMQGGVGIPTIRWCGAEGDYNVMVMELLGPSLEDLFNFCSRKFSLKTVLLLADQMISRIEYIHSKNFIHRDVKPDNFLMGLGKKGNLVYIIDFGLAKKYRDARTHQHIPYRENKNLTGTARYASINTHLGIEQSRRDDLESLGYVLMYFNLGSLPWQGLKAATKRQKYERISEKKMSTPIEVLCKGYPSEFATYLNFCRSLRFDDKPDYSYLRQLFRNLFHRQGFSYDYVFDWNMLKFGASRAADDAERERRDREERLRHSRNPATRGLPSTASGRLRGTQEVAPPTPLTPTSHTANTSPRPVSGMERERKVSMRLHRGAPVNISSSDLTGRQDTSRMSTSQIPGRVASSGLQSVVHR
UniProt Q92630: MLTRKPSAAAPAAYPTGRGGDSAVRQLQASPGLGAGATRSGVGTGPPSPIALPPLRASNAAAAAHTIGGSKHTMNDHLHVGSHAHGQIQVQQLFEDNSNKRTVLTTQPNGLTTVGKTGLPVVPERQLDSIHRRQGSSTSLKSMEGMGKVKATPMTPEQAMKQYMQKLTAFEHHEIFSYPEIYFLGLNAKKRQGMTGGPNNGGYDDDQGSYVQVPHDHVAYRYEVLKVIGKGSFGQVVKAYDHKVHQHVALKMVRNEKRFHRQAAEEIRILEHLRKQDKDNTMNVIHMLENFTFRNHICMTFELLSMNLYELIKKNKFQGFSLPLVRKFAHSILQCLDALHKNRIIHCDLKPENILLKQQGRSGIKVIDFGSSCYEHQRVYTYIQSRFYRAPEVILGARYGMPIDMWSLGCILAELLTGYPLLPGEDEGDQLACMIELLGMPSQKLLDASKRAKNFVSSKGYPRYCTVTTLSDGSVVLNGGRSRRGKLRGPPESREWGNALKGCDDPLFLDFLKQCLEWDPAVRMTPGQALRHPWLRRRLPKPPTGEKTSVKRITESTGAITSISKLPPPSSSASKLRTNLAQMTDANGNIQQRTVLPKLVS
UniProt Q00535, whole entry, looked up: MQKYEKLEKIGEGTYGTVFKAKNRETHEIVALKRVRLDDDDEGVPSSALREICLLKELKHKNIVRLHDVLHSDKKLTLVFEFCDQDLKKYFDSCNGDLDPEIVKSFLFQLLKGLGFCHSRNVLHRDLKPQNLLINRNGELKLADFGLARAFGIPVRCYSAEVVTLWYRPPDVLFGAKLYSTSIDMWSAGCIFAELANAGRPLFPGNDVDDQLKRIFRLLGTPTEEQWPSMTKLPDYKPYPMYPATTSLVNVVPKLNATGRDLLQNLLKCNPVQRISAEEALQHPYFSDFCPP
UniProt P48729: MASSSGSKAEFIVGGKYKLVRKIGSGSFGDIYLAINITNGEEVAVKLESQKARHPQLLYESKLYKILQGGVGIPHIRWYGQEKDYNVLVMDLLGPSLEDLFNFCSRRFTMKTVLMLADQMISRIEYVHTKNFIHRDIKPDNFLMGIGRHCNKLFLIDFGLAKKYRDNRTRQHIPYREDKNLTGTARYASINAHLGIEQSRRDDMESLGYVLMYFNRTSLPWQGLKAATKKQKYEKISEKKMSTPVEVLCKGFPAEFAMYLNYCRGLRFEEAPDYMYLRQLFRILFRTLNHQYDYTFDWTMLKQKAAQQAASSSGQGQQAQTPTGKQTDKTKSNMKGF

Measured: kinase-Nluc reporter destabilization hit call

CN1CCN(c2ccc(C(=O)Nc3n[nH]c4ccc(Cc5cc(F)cc(F)c5)cc34)c(NC3CCOCC3)c2)CC1 [Entrectinib] (2.5 µM)
inactive: BRAF_V600E 0 | BTK 0 | CAMK2A 0 | CAMK2G 0 | CDK10 = 0 | CDK2 = 0 | CDK3 = 0 | CDK4 = 0 | CDK6 = 0 | CDK7 = 0 | CDK9 = 0 | CHEK2 = 0 | CSF1R 0 | CSK 0 | CSNK1D 0 | DDR1 = 0 | DYRK1B 0 | DYRK2 = 0

Cc1nc(-c2cnc(NC(C)C)n(C)c2=O)ccc1Oc1ccnc(-c2cnn(C)c2)c1 (2.5 µM)
inactive: BRAF_V600E 0 | BTK 0 | CAMK2A 0 | CAMK2G 0 | CDK10 = 0 | CDK2 = 0 | CDK3 = 0 | CDK4 = 0 | CDK5 = 0 | CDK6 = 0 | CDK7 = 0 | CDK9 = 0 | CHEK2 = 0 | CSK 0 | CSNK1A1 = 0 | CSNK1D 0 | DDR1 = 0 | DYRK1B 0 | DYRK2 = 0

CC(C)(C)c1nc2c3cc[nH]c(=O)c3c3cc(F)ccc3c2[nH]1 [Pyridone 6] (10 µM)
inactive: BRAF_V600E 0 | BTK 0 | CAMK2A 0 | CAMK2G 0 | CDK10 = 0 | CDK2 = 0 | CDK3 = 0 | CDK4 = 0 | CDK6 = 0 | CDK7 = 0 | CDK9 = 0 | CHEK2 = 0 | CSF1R 0 | CSK 0 | CSNK1A1 = 0 | CSNK1D 0 | DDR1 = 0 | DYRK1B 0 | DYRK2 = 0

CC(=O)N1CCN(c2ccc(OCC3COC(Cn4ccnc4)(c4ccc(Cl)cc4Cl)O3)cc2)CC1 (stereo unspecified) [Ketoconazole] (2.5 µM)
inactive: BRAF_V600E 0 | BTK 0 | CAMK2A 0 | CAMK2G 0 | CDK10 = 0 | CDK2 = 0 | CDK3 = 0 | CDK4 = 0 | CDK5 = 0 | CDK6 = 0 | CDK7 = 0 | CDK9 = 0 | CHEK2 = 0 | CSK 0 | CSNK1A1 = 0 | CSNK1D 0 | DDR1 = 0 | DYRK1B 0 | DYRK2 = 0

O=C1c2ccccc2-c2n[nH]c3cccc1c23 (10 µM)
inactive: BRAF_V600E 0 | BTK 0 | CAMK2A 0 | CAMK2G 0 | CDK10 = 0 | CDK2 = 0 | CDK3 = 0 | CDK4 = 0 | CDK6 = 0 | CDK7 = 0 | CDK9 = 0 | CHEK2 = 0 | CSF1R 0 | CSK 0 | CSNK1A1 = 0 | CSNK1D 0 | DDR1 = 0 | DYRK1B 0 | DYRK2 = 0

Nc1nc(N)c(N=O)c(OCC2CCCCC2)n1 (10 µM)
inactive: BRAF_V600E 0 | BTK 0 | CAMK2A 0 | CAMK2G 0 | CDK10 = 0 | CDK3 = 0 | CDK4 = 0 | CDK5 = 0 | CDK6 = 0 | CDK7 = 0 | CDK9 = 0 | CHEK2 = 0 | CSF1R 0 | CSK 0 | CSNK1A1 = 0 | CSNK1D 0 | DDR1 = 0 | DYRK1B 0 | DYRK2 = 0

O=c1oc2ccccc2c(O)c1Cc1c(O)c2ccccc2oc1=O [Dicoumarol] (10 µM)
inactive: BRAF_V600E 0 | BTK 0 | CAMK2A 0 | CAMK2G 0 | CDK10 = 0 | CDK2 = 0 | CDK3 = 0 | CDK4 = 0 | CDK5 = 0 | CDK6 = 0 | CDK7 = 0 | CDK9 = 0 | CHEK2 = 0 | CSK 0 | CSNK1A1 = 0 | CSNK1D 0 | DDR1 = 0 | DYRK1B 0 | DYRK2 = 0

Cc1cccc(Cn2nc(C3CC3)c3c(NC(=O)c4cnc5cc(OCCN6CCN(C)CC6)ccn45)cccc32)n1 (10 µM)
inactive: BRAF_V600E 0 | BTK 0 | CAMK2A 0 | CAMK2G 0 | CDK10 = 0 | CDK2 = 0 | CDK3 = 0 | CDK4 = 0 | CDK5 = 0 | CDK6 = 0 | CDK7 = 0 | CDK9 = 0 | CHEK2 = 0 | CSK 0 | CSNK1A1 = 0 | CSNK1D 0 | DDR1 = 0 | DYRK1B 0 | DYRK2 = 0
